# Screening data, single-dose tests

Protein sequences, listed by entry. Tags and fused reporters are not part of them. Residues count along the entry.
UniProt I6X8D2, whole entry: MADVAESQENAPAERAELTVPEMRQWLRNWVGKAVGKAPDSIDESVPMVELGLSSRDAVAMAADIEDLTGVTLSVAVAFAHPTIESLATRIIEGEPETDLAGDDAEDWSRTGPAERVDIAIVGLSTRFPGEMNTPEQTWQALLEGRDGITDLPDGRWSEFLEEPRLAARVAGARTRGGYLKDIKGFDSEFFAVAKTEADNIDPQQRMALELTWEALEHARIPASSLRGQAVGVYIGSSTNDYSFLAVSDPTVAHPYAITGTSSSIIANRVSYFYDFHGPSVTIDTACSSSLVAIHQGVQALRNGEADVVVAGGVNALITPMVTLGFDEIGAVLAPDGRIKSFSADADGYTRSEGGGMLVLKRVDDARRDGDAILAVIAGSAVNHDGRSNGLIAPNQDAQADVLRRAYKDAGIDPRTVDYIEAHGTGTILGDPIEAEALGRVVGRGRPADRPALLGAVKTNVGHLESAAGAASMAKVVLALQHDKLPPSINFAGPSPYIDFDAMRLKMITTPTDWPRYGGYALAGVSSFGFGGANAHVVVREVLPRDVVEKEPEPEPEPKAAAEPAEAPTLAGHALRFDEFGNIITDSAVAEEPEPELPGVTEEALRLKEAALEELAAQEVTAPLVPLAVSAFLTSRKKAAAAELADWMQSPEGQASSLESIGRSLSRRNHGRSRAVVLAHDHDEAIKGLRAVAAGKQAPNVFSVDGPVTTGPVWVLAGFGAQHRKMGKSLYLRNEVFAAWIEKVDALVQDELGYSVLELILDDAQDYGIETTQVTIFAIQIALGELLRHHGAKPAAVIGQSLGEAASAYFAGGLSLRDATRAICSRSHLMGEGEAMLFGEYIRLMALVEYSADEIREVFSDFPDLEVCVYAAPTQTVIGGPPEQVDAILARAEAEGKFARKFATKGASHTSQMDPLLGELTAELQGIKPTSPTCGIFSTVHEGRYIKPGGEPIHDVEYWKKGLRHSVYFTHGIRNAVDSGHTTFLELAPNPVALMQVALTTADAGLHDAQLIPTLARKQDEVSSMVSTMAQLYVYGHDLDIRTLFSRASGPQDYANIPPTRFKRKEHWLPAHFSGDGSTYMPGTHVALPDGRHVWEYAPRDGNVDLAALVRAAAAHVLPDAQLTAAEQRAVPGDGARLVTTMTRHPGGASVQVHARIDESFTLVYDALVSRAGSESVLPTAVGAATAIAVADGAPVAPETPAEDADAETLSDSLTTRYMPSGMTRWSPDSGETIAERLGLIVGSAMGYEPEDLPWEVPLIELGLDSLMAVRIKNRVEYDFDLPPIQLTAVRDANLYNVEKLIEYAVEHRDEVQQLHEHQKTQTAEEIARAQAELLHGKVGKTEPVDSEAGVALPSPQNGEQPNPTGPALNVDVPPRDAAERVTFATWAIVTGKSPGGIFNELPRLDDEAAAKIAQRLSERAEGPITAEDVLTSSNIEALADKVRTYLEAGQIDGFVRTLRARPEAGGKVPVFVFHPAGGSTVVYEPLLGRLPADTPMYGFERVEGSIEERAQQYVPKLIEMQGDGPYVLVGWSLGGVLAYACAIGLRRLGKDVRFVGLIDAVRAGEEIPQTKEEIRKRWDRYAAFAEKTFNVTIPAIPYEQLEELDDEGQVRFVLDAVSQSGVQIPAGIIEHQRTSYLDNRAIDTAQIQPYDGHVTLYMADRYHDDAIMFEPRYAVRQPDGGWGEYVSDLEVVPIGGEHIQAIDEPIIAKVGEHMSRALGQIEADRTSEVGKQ
UniProt Q4DA54, 1-478: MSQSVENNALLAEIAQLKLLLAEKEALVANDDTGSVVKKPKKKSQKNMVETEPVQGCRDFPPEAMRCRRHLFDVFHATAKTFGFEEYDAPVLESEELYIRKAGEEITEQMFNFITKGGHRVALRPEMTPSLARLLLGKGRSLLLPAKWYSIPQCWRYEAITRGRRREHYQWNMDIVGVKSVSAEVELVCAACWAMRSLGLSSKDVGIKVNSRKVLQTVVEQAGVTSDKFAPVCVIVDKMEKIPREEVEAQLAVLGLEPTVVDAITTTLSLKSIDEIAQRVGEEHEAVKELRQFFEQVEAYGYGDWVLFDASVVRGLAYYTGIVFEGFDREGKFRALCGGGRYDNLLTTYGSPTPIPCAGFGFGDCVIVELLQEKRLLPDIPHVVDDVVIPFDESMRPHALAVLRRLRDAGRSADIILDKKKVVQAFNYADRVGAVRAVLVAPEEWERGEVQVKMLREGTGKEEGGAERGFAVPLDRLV
UniProt P9WPC5, whole entry: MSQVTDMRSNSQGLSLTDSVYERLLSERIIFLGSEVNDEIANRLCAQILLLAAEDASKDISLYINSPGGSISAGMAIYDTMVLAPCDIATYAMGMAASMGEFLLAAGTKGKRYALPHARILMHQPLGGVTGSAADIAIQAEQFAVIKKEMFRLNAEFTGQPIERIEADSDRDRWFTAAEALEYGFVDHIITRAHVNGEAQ
UniProt P9WPC3, whole entry partner: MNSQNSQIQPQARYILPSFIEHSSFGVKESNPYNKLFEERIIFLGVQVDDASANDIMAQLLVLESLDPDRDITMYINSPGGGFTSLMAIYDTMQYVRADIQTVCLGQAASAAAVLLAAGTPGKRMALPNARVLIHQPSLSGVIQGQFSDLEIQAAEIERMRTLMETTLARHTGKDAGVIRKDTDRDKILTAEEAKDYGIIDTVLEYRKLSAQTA
UniProt A4I591, 1-473: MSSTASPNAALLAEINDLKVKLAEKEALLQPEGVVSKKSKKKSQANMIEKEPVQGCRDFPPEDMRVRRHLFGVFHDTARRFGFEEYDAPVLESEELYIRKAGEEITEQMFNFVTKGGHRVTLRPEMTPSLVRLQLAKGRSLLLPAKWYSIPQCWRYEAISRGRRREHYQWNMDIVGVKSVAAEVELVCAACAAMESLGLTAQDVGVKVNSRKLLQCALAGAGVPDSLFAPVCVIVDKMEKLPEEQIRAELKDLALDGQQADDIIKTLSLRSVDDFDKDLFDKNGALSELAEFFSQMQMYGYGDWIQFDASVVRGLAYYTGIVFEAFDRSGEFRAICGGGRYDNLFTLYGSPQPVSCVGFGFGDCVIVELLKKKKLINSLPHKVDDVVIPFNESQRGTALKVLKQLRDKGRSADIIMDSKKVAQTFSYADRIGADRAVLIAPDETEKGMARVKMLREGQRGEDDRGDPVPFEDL

Each number is a percent effect as filed.
The record does not define 0% and 100%; most values in the screen are far below 50% and negative numbers occur (in some assays of this library far below -100).
This is an unselected part of the compounds tested.
Two or more numbers in one place are separate tests of the same structure; such repeats can differ widely.

Pks13 thioesterase: 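Enzyme assay of the thioesterase domain of polyketide synthase 13; the read-out is not stated. Target: Polyketide synthase Pks13, Mycobacterium tuberculosis (UniProt I6X8D2). Concentration: 30 µM. The record gives no direction; the compounds picked for IC50 retests had high values, so higher reads as stronger inhibition. Size under these conditions: about 67,000 compounds, about 300 of them at 50% or above in at least one test.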
TcHisRS: 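Enzyme assay of histidyl-tRNA synthetase; the read-out is not stated. Target: Histidine-tRNA ligase, Trypanosoma cruzi CL Brener (UniProt Q4DA54). Compounds at 30 µM. Direction is inferred from retests: higher values go with stronger inhibition. Size under these conditions: about 69,000 compounds, about 31 of them at 50% or above in at least one test.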
ClpP1P2: 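ClpP1P2, Mycobacterium tuberculosis (UniProt P9WPC5 and UniProt P9WPC3). Protease assay of ClpP1P2, read by the AMC dye that it sets free. Tested at 50 µM. Higher reads as stronger inhibition, judged from the few compounds that gave an IC50. Most other retested compounds had strongly negative values. Of about 69,000 compounds tested this way, about 10 (0.015%) reached 50% or more in at least one test.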
Leishmania in macrophages: 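Cell assay of Leishmania donovani living inside macrophages; the read-out is not stated. Concentration: 30 µM. Direction is inferred from retests: higher values go with stronger inhibition. About 69,000 compounds were tested under these conditions; 1.5% (about 1,000) showed 50% or more at least once.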
LiHisRS: 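Enzyme assay of histidyl-tRNA synthetase; the read-out is not stated. Target: Histidine-tRNA ligase, Leishmania infantum (UniProt A4I591). Tested at 30 µM. Direction is inferred from retests: higher values go with stronger inhibition. The assay is labelled LdHisRS but filed under L. infantum. About 69,000 compounds were tested under these conditions; 0.6% (about 410) showed 50% or more at least once.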

{"compound": "CCOC(=O)c1sc(NC(=O)C(C)(C)C)c(C#N)c1C", "Pks13 thioesterase": -8.307, "TcHisRS": -1.754, "ClpP1P2": 15.31, "Leishmania in macrophages": -54.29, "LiHisRS": -7.08}
{"compound": "O=C(c1ccc(O)cc1)N1C[C@@H]2CCN(c3cccnc3)C[C@@H]2C1", "Pks13 thioesterase": -22.38, "TcHisRS": 6.897, "ClpP1P2": 13.88, "LiHisRS": 23.53}
{"compound": "Cc1cc(CN2CCN(CC(O)c3ccccc3)CC2)no1", "stereo": "stereo not drawn", "Pks13 thioesterase": -37.56, "TcHisRS": 3.759, "ClpP1P2": 2.2, "Leishmania in macrophages": 28.4, "LiHisRS": 14.61}
{"compound": "O=C(O)C(F)(F)F.[H][C@@]12OCCN(Cc3nccn3C)[C@@]1([H])CCC2CNC(=O)c1ccco1", "stereo": "stereo partly drawn", "Leishmania in macrophages": -15.79}
{"compound": "COc1ccc(CNCC2CCN(c3ccccc3OC)C2)cc1O", "stereo": "stereo not drawn", "Pks13 thioesterase": -1.312, "TcHisRS": 4.651, "ClpP1P2": -9.01, "Leishmania in macrophages": 27.47, "LiHisRS": 16.07}
{"compound": "NC(=O)CN1CCC(C(=O)NCc2nc(-c3ccc(F)cc3)cs2)CC1", "Pks13 thioesterase": -13.99, "TcHisRS": 2.128, "ClpP1P2": -5.316, "Leishmania in macrophages": 12.96, "LiHisRS": -3.125}
{"compound": "Cc1cc(NC(=O)C(C)C)n(-c2nc(C)c(C)c(=O)[nH]2)n1", "Pks13 thioesterase": -38.16, "TcHisRS": -2.424, "ClpP1P2": -8.699, "Leishmania in macrophages": -3.954, "LiHisRS": 20.78}
{"compound": "Cn1c(NCC(=O)N2CCCCC2)c(C#N)c(=O)n(C)c1=O", "Pks13 thioesterase": -9.867, "TcHisRS": 3.158, "ClpP1P2": -4.617, "Leishmania in macrophages": 22.55, "LiHisRS": 27.4}
{"compound": "Cc1cccc(C(=O)Nc2cccc3c2CCCC3)n1", "Pks13 thioesterase": -18.05, "TcHisRS": 6.077, "ClpP1P2": 14.32, "Leishmania in macrophages": 17.73, "LiHisRS": 23.94}
{"compound": "Cc1c(C(=O)NC(C)C)nnn1-c1cccc(C(F)(F)F)c1", "Pks13 thioesterase": -0.834, "TcHisRS": 4.018, "ClpP1P2": -13.73, "Leishmania in macrophages": -11.53, "LiHisRS": 18.52}
{"compound": "CCCn1cc(-c2ccnc(NC3CCCc4ccccc43)n2)c(C)n1", "stereo": "stereo not drawn", "Pks13 thioesterase": 3.229, "TcHisRS": 33.33, "ClpP1P2": -14.79, "Leishmania in macrophages": 36.62, "LiHisRS": 32.26}
{"compound": "COc1ccccc1C1(NCc2c(C)nc3c(C)cccn23)CCCC1", "Pks13 thioesterase": -11.22, "TcHisRS": -0.7576, "ClpP1P2": -4.086, "LiHisRS": -2.817}
{"compound": "Cc1cccc(CN2CC[C@H]3C[C@H](C)O[C@@H]3C2)n1", "Pks13 thioesterase": -6.946, "TcHisRS": 9.244, "ClpP1P2": -3.134, "LiHisRS": 13.76}
{"compound": "Cc1nn(C)cc1C1CC(=O)Nc2c1cnn2C", "stereo": "stereo not drawn", "Pks13 thioesterase": -17.55, "TcHisRS": 2.97, "ClpP1P2": -8.993, "Leishmania in macrophages": 5.369, "LiHisRS": 20.65}
{"compound": "CC(C)Cc1cc(C(=O)N2CCC[C@H]2C(=O)N2CCOCC2)on1", "Pks13 thioesterase": -8.313, "TcHisRS": 5.357, "ClpP1P2": -6.88, "Leishmania in macrophages": -2.915, "LiHisRS": 22.58}
{"compound": "COc1nccnc1-c1cc(NC2CCNCC2)nc2[nH]ccc12", "Pks13 thioesterase": 20.98, "TcHisRS": 8.671, "ClpP1P2": 13.13, "Leishmania in macrophages": 25.1, "LiHisRS": 55.32}
{"compound": "COc1cccc(CCC2CCCN(C(=O)c3ccc(=O)n(C)n3)C2)c1", "stereo": "stereo not drawn", "Pks13 thioesterase": -0.5656, "TcHisRS": -4.902, "ClpP1P2": -28.31, "Leishmania in macrophages": 11.92, "LiHisRS": 9.6}
{"compound": "COc1ccc(CNCc2ccnc(N3CCOCC3)c2)cc1OC", "Pks13 thioesterase": 1.59, "TcHisRS": 1.527, "ClpP1P2": 29.46, "Leishmania in macrophages": 43.01, "LiHisRS": 21.28}
{"compound": "CC(=O)NCC(=O)N1CCOC2(CCCN(c3cccnc3)C2)C1.O=C(O)C(F)(F)F", "stereo": "stereo not drawn", "Leishmania in macrophages": 4.273}
{"compound": "CCN1Cc2ccccc2CC2(CCN(C)CC2)C1=O", "Pks13 thioesterase": -13.38, "TcHisRS": 1.111, "ClpP1P2": -4.076, "Leishmania in macrophages": 17.82, "LiHisRS": 1.887}
{"compound": "O=C(CC1CC1)N1CCc2ncc(CN3CCOCC3)n2CC1.O=C(O)C(F)(F)F", "Leishmania in macrophages": -1.362}
{"compound": "O=C(N[C@@H]1CN(Cc2ccc3cc[nH]c3c2)C[C@H]1O)c1cnccn1", "Pks13 thioesterase": -7.334, "TcHisRS": 5.495, "ClpP1P2": -12.85, "Leishmania in macrophages": "16.69 & 10.16", "LiHisRS": 13.04}
{"compound": "COCCOc1ncccc1C(=O)N1CCCC1Cn1cc(C)cn1", "stereo": "stereo not drawn", "Pks13 thioesterase": -11.45, "TcHisRS": 2.579, "ClpP1P2": 17.51, "Leishmania in macrophages": 7.593, "LiHisRS": 12.28}
{"compound": "Cc1ccc(CC(=O)N2CCCC(n3ccnc3C(C)C)C2)cn1", "stereo": "stereo not drawn", "Pks13 thioesterase": -13.07, "TcHisRS": 2.89, "ClpP1P2": 8.917, "Leishmania in macrophages": 20.88, "LiHisRS": 0.8772}
{"compound": "COC[C@H]1CCC[C@]12CN(C(=O)NCc1ccccc1)CCO2", "Pks13 thioesterase": -27.65, "TcHisRS": -16.94, "ClpP1P2": -4.436, "Leishmania in macrophages": -9.177, "LiHisRS": 17.48}

Repeated from the top, 2 entries:

Result for CCOC(=O)c1sc(NC(=O)C(C)(C)C)c(C#N)c1C was Pks13 thioesterase: -8.307%; TcHisRS: -1.754%; ClpP1P2: 15.31%; Leishmania in macrophages: -54.29%; LiHisRS: -7.08%.
Result for O=C(c1ccc(O)cc1)N1C[C@@H]2CCN(c3cccnc3)C[C@@H]2C1 was Pks13 thioesterase: -22.38%; TcHisRS: 6.897%; ClpP1P2: 13.88%; LiHisRS: 23.53%.

Measurements from “University of Dundee, Small-Polar-MMV Screening Library” (2021), ChEMBL document CHEMBL3988442.